From paper PMC9106349
These are yes or no findings as the source states them, for the method shown. In cells and extracts the contact can be indirect. Here binding means that the protein was enriched with, or labelled near, the bait; the list need not be complete. Where a sequence is shown, tags or fusion partners need not be part of it.

Chains of the proteins cited; added tags and fusions are not shown.
UniProt Q9ULV0: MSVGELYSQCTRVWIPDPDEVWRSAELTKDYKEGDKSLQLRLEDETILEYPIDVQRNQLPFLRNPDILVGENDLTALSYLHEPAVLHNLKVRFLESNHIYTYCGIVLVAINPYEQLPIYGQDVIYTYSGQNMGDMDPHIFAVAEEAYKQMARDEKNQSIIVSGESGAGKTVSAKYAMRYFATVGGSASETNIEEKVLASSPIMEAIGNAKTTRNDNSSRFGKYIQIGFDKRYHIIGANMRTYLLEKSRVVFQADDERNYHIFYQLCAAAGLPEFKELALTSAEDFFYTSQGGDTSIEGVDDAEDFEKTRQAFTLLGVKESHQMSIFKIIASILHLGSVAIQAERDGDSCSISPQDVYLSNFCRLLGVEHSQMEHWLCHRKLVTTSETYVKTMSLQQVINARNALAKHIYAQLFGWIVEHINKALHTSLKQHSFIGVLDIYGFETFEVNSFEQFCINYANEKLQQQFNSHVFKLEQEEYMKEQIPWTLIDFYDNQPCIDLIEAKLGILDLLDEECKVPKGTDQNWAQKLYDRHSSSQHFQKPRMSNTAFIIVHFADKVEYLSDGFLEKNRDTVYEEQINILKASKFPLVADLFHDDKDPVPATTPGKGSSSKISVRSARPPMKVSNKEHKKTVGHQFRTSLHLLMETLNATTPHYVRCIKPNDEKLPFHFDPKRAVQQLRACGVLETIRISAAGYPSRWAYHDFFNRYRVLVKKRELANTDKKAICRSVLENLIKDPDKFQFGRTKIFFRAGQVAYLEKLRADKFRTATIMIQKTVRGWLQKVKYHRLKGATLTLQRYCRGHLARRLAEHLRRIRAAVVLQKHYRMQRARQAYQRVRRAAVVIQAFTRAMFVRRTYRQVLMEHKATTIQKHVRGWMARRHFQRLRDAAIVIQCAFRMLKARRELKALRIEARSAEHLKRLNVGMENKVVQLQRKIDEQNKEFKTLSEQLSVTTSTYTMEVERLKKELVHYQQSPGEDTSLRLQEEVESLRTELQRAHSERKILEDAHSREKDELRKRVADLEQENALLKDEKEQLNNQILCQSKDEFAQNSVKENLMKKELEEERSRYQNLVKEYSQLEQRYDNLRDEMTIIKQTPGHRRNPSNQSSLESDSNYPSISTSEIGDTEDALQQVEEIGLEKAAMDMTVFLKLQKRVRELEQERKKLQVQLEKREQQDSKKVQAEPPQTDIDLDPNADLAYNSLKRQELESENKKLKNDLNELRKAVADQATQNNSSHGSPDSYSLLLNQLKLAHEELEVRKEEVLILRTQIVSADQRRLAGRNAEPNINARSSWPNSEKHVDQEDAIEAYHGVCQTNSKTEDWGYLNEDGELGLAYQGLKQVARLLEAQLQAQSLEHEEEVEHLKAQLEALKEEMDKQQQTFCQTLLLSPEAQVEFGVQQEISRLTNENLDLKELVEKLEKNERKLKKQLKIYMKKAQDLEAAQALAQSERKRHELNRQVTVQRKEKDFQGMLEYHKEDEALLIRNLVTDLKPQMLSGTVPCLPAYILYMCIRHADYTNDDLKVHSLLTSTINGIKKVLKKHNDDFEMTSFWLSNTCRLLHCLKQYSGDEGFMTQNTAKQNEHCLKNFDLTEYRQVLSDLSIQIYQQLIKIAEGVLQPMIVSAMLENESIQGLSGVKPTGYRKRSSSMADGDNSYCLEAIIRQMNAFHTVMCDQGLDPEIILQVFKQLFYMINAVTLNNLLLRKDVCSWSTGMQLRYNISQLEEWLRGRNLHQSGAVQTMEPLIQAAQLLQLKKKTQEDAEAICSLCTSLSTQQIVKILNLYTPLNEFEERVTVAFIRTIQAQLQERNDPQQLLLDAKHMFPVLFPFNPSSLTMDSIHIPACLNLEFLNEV

Molecular target: T1, myc-tagged UNC45A WT (human) (UniProt Q9H3U1)
T1 sequence: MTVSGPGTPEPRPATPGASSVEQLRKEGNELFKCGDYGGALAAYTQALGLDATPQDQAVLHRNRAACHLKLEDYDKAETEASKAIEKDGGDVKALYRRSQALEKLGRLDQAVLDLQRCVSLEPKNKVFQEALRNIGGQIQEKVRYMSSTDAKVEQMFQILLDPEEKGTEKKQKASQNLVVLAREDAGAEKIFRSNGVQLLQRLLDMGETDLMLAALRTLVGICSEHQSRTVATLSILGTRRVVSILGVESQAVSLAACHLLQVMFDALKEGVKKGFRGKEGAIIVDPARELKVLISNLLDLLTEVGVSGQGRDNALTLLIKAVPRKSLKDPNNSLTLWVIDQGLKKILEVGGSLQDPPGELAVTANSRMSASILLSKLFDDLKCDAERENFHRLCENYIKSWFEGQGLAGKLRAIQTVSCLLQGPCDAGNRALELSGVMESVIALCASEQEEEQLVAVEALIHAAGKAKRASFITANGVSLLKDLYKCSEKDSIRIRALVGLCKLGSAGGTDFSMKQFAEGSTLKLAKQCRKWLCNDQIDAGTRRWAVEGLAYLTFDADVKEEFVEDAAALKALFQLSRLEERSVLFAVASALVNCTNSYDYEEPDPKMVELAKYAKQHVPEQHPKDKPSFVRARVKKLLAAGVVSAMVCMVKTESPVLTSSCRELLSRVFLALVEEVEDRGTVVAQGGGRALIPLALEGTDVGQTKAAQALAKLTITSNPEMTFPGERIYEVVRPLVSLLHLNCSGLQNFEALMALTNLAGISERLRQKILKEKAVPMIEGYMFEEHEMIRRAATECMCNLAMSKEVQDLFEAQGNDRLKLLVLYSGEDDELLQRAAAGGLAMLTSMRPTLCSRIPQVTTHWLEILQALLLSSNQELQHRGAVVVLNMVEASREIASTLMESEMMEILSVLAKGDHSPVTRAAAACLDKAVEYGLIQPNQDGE
Test: affinity purification with mass spectrometry; lysates of myc-tagged UNC45A Caco-2 cells and myc-tagged empty vector control cells immunoprecipitated with myc-Ab (μMACS c-myc Isolation Kit); lysis buffer 10 mM Tris/HCl, 150 mM NaCl, 0.5 mM EDTA, 0.5% NP40; Orbitrap mass spectrometry, 3 independent pull-down assays

binding: binds
Substance: myosin VB (from UniProt Q9ULV0 1-1848)
